Laboratory results published in the supplement of paper PMC7877785.
± gives the uncertainty stated by the source. Many of these values have a large error.

Assay: self-splicing fitness, log relative to wild type (ln ratio); higher = more splicing; Tetrahymena group I intron in knt gene, E. coli kanamycin selection, DiMSum; sequences stand for … in CUCUCU…GGAGGGAAAAGUUAUCAGGCAUGCACCUGGUAGCUAGUCUUUAAACCAAUAGAUUGCAUCGGUUUAAAAGGCAAGACCGUCAAAUUGCGGGAAAGGGGUCAACAGCCGUUCAGUACCAAGUCUCAGGGGAAACUUUGAGAUGGCCUUGCAAAGGGUAUGGUAAUAAGCUGACGGACAUGGUCCUAACCACGCAGCCAAGUCCUAAGUCAACAGAUCUUCUGUUGAUAUGGAUGCAGUUCACAGACUAAAUGUCGGUCGGGGAAGAUGUAUUCUUCUCAUAAGAUAUAGUCGGACCUCUCCUUAAUGGGAGCUAGCGGAUGAAGUGAUGCAACACUGGAGCCGCUGGGAACUAAUUUGUAUGCGAAAGUAUAUUGAUUAGUUUUGGAGUACUCGUGGUCG
Summary of the method: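 Library with all eight P1ex-region intron nucleotides randomised, intron inside the knt kanamycin-resistance gene on pET-22b(+), in E. coli BL21(DE3). Cells grew overnight at 37°C or 30°C on LB agar with or without 25 μg/mL kanamycin (plus 100 μg/mL carbenicillin, 50 μM IPTG, 0.2% rhamnose), in six replicate transformations. Pooled colonies were amplicon-sequenced on Illumina HiSeq 2500. DiMSum fitness is the error-weighted combination of wild-type-normalised replicate fold changes, kanamycin versus none.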

Row | Sequence | self-splicing fitness (ln) (30 °C) | self-splicing fitness (ln) (37 °C)
1 | AGACAGCAAUAUUACGCGAC | -3.41 ± 0.44 | -1.99 ± 0.21
2 | AUUGAGCAAUAUUACGCCAG | -4 ± 1 | -2.09 ± 0.64
3 | CCUGAGCAAUAUUACGCUAC | -4.29 ± 1.1 | -3.26 ± 1
4 | CGUAAGCAAUAUUACGUAGG | -1.09 ± 0.082 | -0.149 ± 0.11
5 | UCGUAGCAAUAUUACGUUAU | -4.46 ± 0.42 | -2.64 ± 0.34
6 | AUACAGCAAUAUUACGAACG | -0.79 ± 0.12 | -1.44 ± 0.17
7 | UGUAAGCAAUAUUACGGUUC | -3.6 ± 0.78 | 
8 | AUUAAGCAAUAUUACGAACG | -1.59 ± 0.18 | -0.243 ± 0.15
9 | CGGGAGCAAUAUUACGCUUC | -3.18 ± 0.74 | 
10 | GGAGAGCAAUAUUACGAGUG | -3.94 ± 0.6 | -1.95 ± 0.51
11 | CUUGAGCAAUAUUACGUCCC | -3.07 ± 0.64 | -1.04 ± 0.64
12 | CCUGAGCAAUAUUACGACCU | -2.65 ± 0.79 | -3.34 ± 1
13 | GUGUAGCAAUAUUACGCGUU | -4.08 ± 0.72 | 
14 | GGUCAGCAAUAUUACGCGUC | -1.46 ± 0.17 | 0.149 ± 0.19
15 | GAGGAGCAAUAUUACGCAAU |  | -3.32 ± 1
16 | AUAGAGCAAUAUUACGAGUC |  | -2.73 ± 0.79
17 | CUCCAGCAAUAUUACGCGUA | -4.05 ± 1 | 
18 | UGCGAGCAAUAUUACGCGGG |  | -2.26 ± 0.56
19 | UUUGAGCAAUAUUACGACGC | -4.33 ± 1 | -2.52 ± 0.63
20 | GCUGAGCAAUAUUACGAUCC | -1.34 ± 0.15 | 0.743 ± 0.24
21 | UCUGAGCAAUAUUACGCCAA | -3.37 ± 0.56 | -1.51 ± 0.32
22 | UUGUAGCAAUAUUACGUUUC |  | -2.8 ± 0.53
23 | ACCGAGCAAUAUUACGUAUC | -4.53 ± 0.51 | 

Row | Sequence | self-splicing fitness (ln) (30 °C) | self-splicing fitness (ln) (37 °C)
24 | CUGGAGCAAUAUUACGGAGU |  | -4.24 ± 0.72
25 | GCGGAGCAAUAUUACGUCAA |  | -2.79 ± 0.77
26 | AGUAAGCAAUAUUACGUCGU | -2.12 ± 0.13 | -0.496 ± 0.12
27 | UCUGAGCAAUAUUACGUGCU |  | -3.65 ± 0.59
28 | AGGGAGCAAUAUUACGUCCG | -2.7 ± 0.78 | -0.818 ± 0.68
29 | UAUGAGCAAUAUUACGAGGU | -4.66 ± 1 | 
30 | UCAGAGCAAUAUUACGCCAC | -3.37 ± 0.53 | -1.47 ± 1.2
31 | CGAGAGCAAUAUUACGGAGG |  | -2.9 ± 0.53
32 | GGAGAGCAAUAUUACGAGGG |  | -2.72 ± 1.1
33 | AACGAGCAAUAUUACGUUGA | -3.48 ± 0.21 | -3.32 ± 0.22
34 | AGGGAGCAAUAUUACGGAAU | -4.67 ± 0.73 | -2.13 ± 0.56
35 | UGUAAGCAAUAUUACGAACU | -0.349 ± 0.12 | -0.682 ± 0.12
36 | UUCUAGCAAUAUUACGCCGC | -1.87 ± 0.58 | -1.79 ± 1.2
37 | UAAUAGCAAUAUUACGGAGC |  | -1.31 ± 0.63
38 | AGUCAGCAAUAUUACGGGGG | -3.61 ± 0.21 | -2.6 ± 0.22
39 | UCCAAGCAAUAUUACGGGGC | -4.07 ± 0.23 | -3.13 ± 0.2
40 | GCGAAGCAAUAUUACGGACG | -0.0597 ± 0.13 | -0.969 ± 0.2
41 | UAAUAGCAAUAUUACGACUU | -0.84 ± 0.1 | -0.376 ± 0.094
42 | UCUGAGCAAUAUUACGAGAA | -2.29 ± 0.55 | -2.03 ± 0.52
43 | AUUCAGCAAUAUUACGCCUC | -1.43 ± 0.15 | 0.286 ± 0.16
44 | AGUUAGCAAUAUUACGAGCG | -0.12 ± 0.1 | 0.237 ± 0.11
45 | CUUAAGCAAUAUUACGGCCC |  | -2.18 ± 1.1
46 | UUGGAGCAAUAUUACGAAAU | -2.49 ± 0.84 | -1.48 ± 0.5

Row | Sequence | self-splicing fitness (ln) (30 °C) | self-splicing fitness (ln) (37 °C)
47 | AGGGAGCAAUAUUACGAUAC | -2.29 ± 0.9 | 
48 | GAGAAGCAAUAUUACGACCC |  | -0.185 ± 0.53
49 | GGCCAGCAAUAUUACGGCCG | -3.47 ± 0.22 | -3 ± 0.23
50 | GAGGAGCAAUAUUACGGGGC | -0.135 ± 1.2 | -1.79 ± 1.2
51 | AAGGAGCAAUAUUACGUACG | -3.57 ± 0.6 | -2.52 ± 0.62
52 | AAAGAGCAAUAUUACGGUAG | -3.9 ± 0.27 | -2.11 ± 0.18
53 | CGGAAGCAAUAUUACGGGAC |  | -1.2 ± 0.73
54 | UUCGAGCAAUAUUACGGGAC | -3.17 ± 1 | 
55 | UACUAGCAAUAUUACGGAGG | -2.77 ± 0.17 | -1.28 ± 0.13
56 | GUCAAGCAAUAUUACGGUCU | -2.7 ± 0.084 | -0.906 ± 0.075
57 | ACAGAGCAAUAUUACGCCUC |  | -0.505 ± 0.68
58 | GACGAGCAAUAUUACGACAG | -3.85 ± 0.53 | 
59 | UAUAAGCAAUAUUACGUCCA | -1.23 ± 0.12 | 0.113 ± 0.18
60 | CAGCAGCAAUAUUACGACGC | -3.88 ± 1.1 | 
61 | GCGCAGCAAUAUUACGAACC | -0.868 ± 0.71 | 0.0779 ± 0.55
62 | UAAUAGCAAUAUUACGCCGC | -3.34 ± 1 | -1.02 ± 0.53
63 | UACGAGCAAUAUUACGCCUU |  | -3.11 ± 0.61
64 | GGAGAGCAAUAUUACGGGGG | -3.28 ± 0.77 | 
65 | GAAAAGCAAUAUUACGCGGA | -2.25 ± 0.14 | -0.603 ± 0.13
66 | CUCGAGCAAUAUUACGCUGC |  | -2.71 ± 0.76
67 | GGACAGCAAUAUUACGUUAU | -0.282 ± 0.046 | 0.102 ± 0.066
68 | GGACAGCAAUAUUACGCUCU |  | -2.22 ± 0.58
69 | GGUCAGCAAUAUUACGGAGG | -4.27 ± 0.51 | 

Row | Sequence | self-splicing fitness (ln) (30 °C) | self-splicing fitness (ln) (37 °C)
70 | GCUGAGCAAUAUUACGUUAC | -4.23 ± 0.72 | 
71 | CGCUAGCAAUAUUACGUUAC |  | -3.2 ± 0.6
72 | CUCGAGCAAUAUUACGUUCG | -2.77 ± 0.78 | 
73 | UUACAGCAAUAUUACGAAAC | -2.85 ± 0.33 | -2.49 ± 0.41
74 | UUCGAGCAAUAUUACGCCGU | 0.0702 ± 0.55 | -2.86 ± 0.62
75 | UCUGAGCAAUAUUACGGAGC | -2.77 ± 0.21 | -2.92 ± 0.2
76 | GAGGAGCAAUAUUACGUCAG |  | -2.79 ± 0.63
77 | GCGUAGCAAUAUUACGUAAU | -2.81 ± 0.54 | 
78 | AUAGAGCAAUAUUACGCCCG | -2.17 ± 0.87 | -1.53 ± 0.71
79 | UCUAAGCAAUAUUACGGUUG | -2.82 ± 0.15 | -2.61 ± 0.18
80 | GGCGAGCAAUAUUACGUGGA | -3.89 ± 0.59 | -3.72 ± 0.73
81 | CCGAAGCAAUAUUACGCCGC | -1.87 ± 0.62 | -1.68 ± 0.63
82 | UAUGAGCAAUAUUACGUCCG | -1.81 ± 0.57 | 
83 | CUAGAGCAAUAUUACGCUCC | -2.45 ± 0.42 | -1.74 ± 0.66
84 | CAUAAGCAAUAUUACGGGUG | -2.3 ± 0.08 | -1.17 ± 0.078
85 | CUUUAGCAAUAUUACGCUAC |  | -2.07 ± 0.65
86 | CAGUAGCAAUAUUACGAAGC | -4.73 ± 1 | -3.05 ± 0.32
87 | UGUUAGCAAUAUUACGGAGA | -3.17 ± 1 | -3.39 ± 1
88 | CCGUAGCAAUAUUACGGCAC | -3.83 ± 0.42 | -2.14 ± 0.26
89 | ACUCAGCAAUAUUACGAGGG | -1.85 ± 0.08 | -1.41 ± 0.1
90 | GAGGAGCAAUAUUACGUGUA | -5.35 ± 1 | 
91 | GUGGAGCAAUAUUACGCAGA | -2.66 ± 0.66 | 0.0117 ± 1.2
92 | UAUAAGCAAUAUUACGUUGC |  | -2.95 ± 0.53

Row | Sequence | self-splicing fitness (ln) (30 °C) | self-splicing fitness (ln) (37 °C)
93 | UUGAAGCAAUAUUACGAGUC | -3.73 ± 0.32 | -2.8 ± 0.38
94 | CCCAAGCAAUAUUACGCAUC | -4.93 ± 0.71 | 
95 | UCAUAGCAAUAUUACGUGAC | -2.25 ± 0.51 | -3.21 ± 0.74
96 | CAAUAGCAAUAUUACGGGCC | -5.08 ± 0.58 | 
97 | CUGGAGCAAUAUUACGAUCU | -1.96 ± 0.87 | -2.19 ± 0.57
98 | GCUAAGCAAUAUUACGAUAA | -1.88 ± 0.17 | -1.1 ± 0.17
99 | CGAGAGCAAUAUUACGUAUA |  | -4.33 ± 0.51
100 | UAGUAGCAAUAUUACGUAUA | -1.69 ± 0.25 | -1.14 ± 0.27
101 | UUCGAGCAAUAUUACGACGC | -4.29 ± 1.1 | 
102 | UAAUAGCAAUAUUACGCUGC |  | -2.64 ± 0.53
103 | UCUCAGCAAUAUUACGUCAU | -3.13 ± 0.2 | -3.29 ± 0.27
104 | UUGUAGCAAUAUUACGGCAU | -0.835 ± 0.096 | 0.641 ± 0.11
105 | CAUGAGCAAUAUUACGUACA | -3.1 ± 0.22 | -2.17 ± 0.3
106 | GCGGAGCAAUAUUACGGCAG |  | -0.595 ± 1.4
107 | UCCCAGCAAUAUUACGACUG | -3.58 ± 0.2 | -3.16 ± 0.32
108 | GUCUAGCAAUAUUACGCGCC | -2.65 ± 1.1 | -2.02 ± 0.78
109 | GACGAGCAAUAUUACGACAA | -3.73 ± 0.61 | 
110 | CCCGAGCAAUAUUACGUUCC |  | -3.02 ± 0.52
111 | CUCCAGCAAUAUUACGCCGC |  | -2.62 ± 0.75

Not a retest: an excerpt of the list.
Row | Sequence | self-splicing fitness (ln) (30 °C) | self-splicing fitness (ln) (37 °C)
85 | CUUUAGCAAUAUUACGCUAC |  | -2.07 ± 0.65
86 | CAGUAGCAAUAUUACGAAGC | -4.73 ± 1 | -3.05 ± 0.32
87 | UGUUAGCAAUAUUACGGAGA | -3.17 ± 1 | -3.39 ± 1
88 | CCGUAGCAAUAUUACGGCAC | -3.83 ± 0.42 | -2.14 ± 0.26
